Experimental data: paper PMC7463853
These are yes or no findings as the source states them, for the method shown. Binding seen in cells or lysates may run through a third protein. Some entries that bind do so weakly or less than the wild type. For some of these results: Tags and fused reporters may be left off the sequences shown.

Tests used:
[1] = biological target: T1, RFP-tagged MACC1 (Metastasis-Associated in Colon Cancer 1) (UniProt Q6ZN28); assay: co-IP; HEK293T cells overexpressing MACC1-RFP and DCLK1-GFP; IP-lysis buffer with protease inhibitor; 2 µg of the respective antibody overnight at 4 °C, G-agarose beads 4 h at 4 °C; each protein in turn precipitated
T1 sequence: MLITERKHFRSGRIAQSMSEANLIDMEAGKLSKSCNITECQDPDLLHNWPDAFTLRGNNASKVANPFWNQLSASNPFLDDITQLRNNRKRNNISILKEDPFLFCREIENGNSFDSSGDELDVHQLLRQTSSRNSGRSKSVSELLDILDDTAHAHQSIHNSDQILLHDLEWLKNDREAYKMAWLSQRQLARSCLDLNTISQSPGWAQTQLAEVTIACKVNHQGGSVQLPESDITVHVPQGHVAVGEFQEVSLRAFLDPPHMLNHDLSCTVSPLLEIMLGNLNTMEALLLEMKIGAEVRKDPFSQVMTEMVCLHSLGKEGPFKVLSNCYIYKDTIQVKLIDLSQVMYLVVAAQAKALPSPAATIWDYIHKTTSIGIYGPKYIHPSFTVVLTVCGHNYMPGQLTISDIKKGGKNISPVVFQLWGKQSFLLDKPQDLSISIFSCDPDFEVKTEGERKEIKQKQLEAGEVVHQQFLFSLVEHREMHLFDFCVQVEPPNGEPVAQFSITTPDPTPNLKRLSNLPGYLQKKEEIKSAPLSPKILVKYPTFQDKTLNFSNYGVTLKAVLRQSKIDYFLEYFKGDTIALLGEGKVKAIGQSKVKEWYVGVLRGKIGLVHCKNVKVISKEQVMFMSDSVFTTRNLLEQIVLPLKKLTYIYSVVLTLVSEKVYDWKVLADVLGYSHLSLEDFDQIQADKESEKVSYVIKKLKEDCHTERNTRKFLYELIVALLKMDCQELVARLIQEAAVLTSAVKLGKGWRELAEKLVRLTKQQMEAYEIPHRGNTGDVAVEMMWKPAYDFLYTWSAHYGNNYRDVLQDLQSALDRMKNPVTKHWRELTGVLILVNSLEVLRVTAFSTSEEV

[2] = biological target: T1, RFP-tagged MACC1 (Metastasis-Associated in Colon Cancer 1); assay: FRET or BRET; GFP- and RFP-tagged proteins overexpressed in HEK293T cells by lentiviral transfer; cells fixed with 4% paraformaldehyde; FRET efficacy scaled 0 to 1 (ImageJ plugin FRETTY)
GFP-tagged DCLK1 = biological target: T2, GFP-tagged DCLK1 (UniProt O15075); assay: co-IP; HEK293T cells overexpressing MACC1-RFP and DCLK1-GFP; IP-lysis buffer with protease inhibitor; 2 µg of the respective antibody overnight at 4 °C, G-agarose beads 4 h at 4 °C; each protein in turn precipitated
T2 sequence: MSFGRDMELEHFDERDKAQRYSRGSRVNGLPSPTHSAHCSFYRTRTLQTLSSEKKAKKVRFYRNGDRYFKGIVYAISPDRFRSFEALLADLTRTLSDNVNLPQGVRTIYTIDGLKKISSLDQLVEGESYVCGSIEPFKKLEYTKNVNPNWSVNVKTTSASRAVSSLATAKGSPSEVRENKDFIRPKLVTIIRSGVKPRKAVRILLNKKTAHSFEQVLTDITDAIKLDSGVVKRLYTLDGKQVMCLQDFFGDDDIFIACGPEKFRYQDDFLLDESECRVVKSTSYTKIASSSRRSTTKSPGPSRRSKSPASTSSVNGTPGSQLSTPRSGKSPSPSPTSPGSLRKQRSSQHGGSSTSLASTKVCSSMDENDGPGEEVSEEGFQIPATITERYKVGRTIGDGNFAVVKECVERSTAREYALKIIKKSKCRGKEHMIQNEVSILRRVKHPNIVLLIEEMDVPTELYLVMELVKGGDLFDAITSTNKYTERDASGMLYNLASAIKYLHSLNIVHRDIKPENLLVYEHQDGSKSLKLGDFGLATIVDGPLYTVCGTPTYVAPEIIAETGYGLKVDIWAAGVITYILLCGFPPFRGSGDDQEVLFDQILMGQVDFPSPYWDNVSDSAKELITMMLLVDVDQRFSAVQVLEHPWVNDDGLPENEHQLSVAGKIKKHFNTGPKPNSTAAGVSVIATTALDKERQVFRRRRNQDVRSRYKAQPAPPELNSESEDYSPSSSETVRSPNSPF

[3] = biological target: T3, MACC1, ectopically overexpressed in a CRC cell line (UniProt Q6ZN28); assay: co-IP; lysate of a CRC cell line with ectopic MACC1 overexpression; 2 µg of the respective antibody overnight at 4 °C, G-agarose beads 4 h at 4 °C
T3 sequence: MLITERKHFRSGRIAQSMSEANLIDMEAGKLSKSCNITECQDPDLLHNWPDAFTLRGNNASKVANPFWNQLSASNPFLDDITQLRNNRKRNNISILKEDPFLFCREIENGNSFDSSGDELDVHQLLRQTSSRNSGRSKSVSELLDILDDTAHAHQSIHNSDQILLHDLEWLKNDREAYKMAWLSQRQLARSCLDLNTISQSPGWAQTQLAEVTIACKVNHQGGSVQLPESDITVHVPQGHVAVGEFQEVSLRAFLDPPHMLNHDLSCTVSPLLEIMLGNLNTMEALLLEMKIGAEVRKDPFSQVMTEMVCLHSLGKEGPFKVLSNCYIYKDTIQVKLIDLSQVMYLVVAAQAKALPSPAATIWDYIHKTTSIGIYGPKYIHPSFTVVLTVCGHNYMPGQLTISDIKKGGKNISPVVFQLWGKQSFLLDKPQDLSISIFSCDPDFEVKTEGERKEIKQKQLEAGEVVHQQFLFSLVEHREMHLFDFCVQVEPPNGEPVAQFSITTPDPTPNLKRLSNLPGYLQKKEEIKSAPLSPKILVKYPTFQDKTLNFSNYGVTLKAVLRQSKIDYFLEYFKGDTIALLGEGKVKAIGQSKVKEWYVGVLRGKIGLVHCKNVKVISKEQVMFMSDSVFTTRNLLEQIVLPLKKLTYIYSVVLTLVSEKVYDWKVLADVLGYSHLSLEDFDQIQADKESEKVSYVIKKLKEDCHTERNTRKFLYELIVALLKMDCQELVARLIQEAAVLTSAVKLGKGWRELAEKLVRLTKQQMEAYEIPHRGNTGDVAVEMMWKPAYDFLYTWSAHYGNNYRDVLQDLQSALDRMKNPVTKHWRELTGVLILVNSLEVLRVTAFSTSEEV

B1: GFP-tagged DCLK1 (protein, UniProt O15075 1-740)
chain: MSFGRDMELEHFDERDKAQRYSRGSRVNGLPSPTHSAHCSFYRTRTLQTLSSEKKAKKVRFYRNGDRYFKGIVYAISPDRFRSFEALLADLTRTLSDNVNLPQGVRTIYTIDGLKKISSLDQLVEGESYVCGSIEPFKKLEYTKNVNPNWSVNVKTTSASRAVSSLATAKGSPSEVRENKDFIRPKLVTIIRSGVKPRKAVRILLNKKTAHSFEQVLTDITDAIKLDSGVVKRLYTLDGKQVMCLQDFFGDDDIFIACGPEKFRYQDDFLLDESECRVVKSTSYTKIASSSRRSTTKSPGPSRRSKSPASTSSVNGTPGSQLSTPRSGKSPSPSPTSPGSLRKQRSSQHGGSSTSLASTKVCSSMDENDGPGEEVSEEGFQIPATITERYKVGRTIGDGNFAVVKECVERSTAREYALKIIKKSKCRGKEHMIQNEVSILRRVKHPNIVLLIEEMDVPTELYLVMELVKGGDLFDAITSTNKYTERDASGMLYNLASAIKYLHSLNIVHRDIKPENLLVYEHQDGSKSLKLGDFGLATIVDGPLYTVCGTPTYVAPEIIAETGYGLKVDIWAAGVITYILLCGFPPFRGSGDDQEVLFDQILMGQVDFPSPYWDNVSDSAKELITMMLLVDVDQRFSAVQVLEHPWVNDDGLPENEHQLSVAGKIKKHFNTGPKPNSTAAGVSVIATTALDKERQVFRRRRNQDVRSRYKAQPAPPELNSESEDYSPSSSETVRSPNSPF
binding [1]: binds | binding [2]: binds

B2: RFP-tagged MACC1 (Metastasis-Associated in Colon Cancer 1) (protein, UniProt Q6ZN28 1-852)
chain: MLITERKHFRSGRIAQSMSEANLIDMEAGKLSKSCNITECQDPDLLHNWPDAFTLRGNNASKVANPFWNQLSASNPFLDDITQLRNNRKRNNISILKEDPFLFCREIENGNSFDSSGDELDVHQLLRQTSSRNSGRSKSVSELLDILDDTAHAHQSIHNSDQILLHDLEWLKNDREAYKMAWLSQRQLARSCLDLNTISQSPGWAQTQLAEVTIACKVNHQGGSVQLPESDITVHVPQGHVAVGEFQEVSLRAFLDPPHMLNHDLSCTVSPLLEIMLGNLNTMEALLLEMKIGAEVRKDPFSQVMTEMVCLHSLGKEGPFKVLSNCYIYKDTIQVKLIDLSQVMYLVVAAQAKALPSPAATIWDYIHKTTSIGIYGPKYIHPSFTVVLTVCGHNYMPGQLTISDIKKGGKNISPVVFQLWGKQSFLLDKPQDLSISIFSCDPDFEVKTEGERKEIKQKQLEAGEVVHQQFLFSLVEHREMHLFDFCVQVEPPNGEPVAQFSITTPDPTPNLKRLSNLPGYLQKKEEIKSAPLSPKILVKYPTFQDKTLNFSNYGVTLKAVLRQSKIDYFLEYFKGDTIALLGEGKVKAIGQSKVKEWYVGVLRGKIGLVHCKNVKVISKEQVMFMSDSVFTTRNLLEQIVLPLKKLTYIYSVVLTLVSEKVYDWKVLADVLGYSHLSLEDFDQIQADKESEKVSYVIKKLKEDCHTERNTRKFLYELIVALLKMDCQELVARLIQEAAVLTSAVKLGKGWRELAEKLVRLTKQQMEAYEIPHRGNTGDVAVEMMWKPAYDFLYTWSAHYGNNYRDVLQDLQSALDRMKNPVTKHWRELTGVLILVNSLEVLRVTAFSTSEEV
binding (GFP-tagged DCLK1): binds

B3: DCLK1 in a CRC cell line with ectopic MACC1 overexpression (protein, UniProt O15075 1-740)
chain: MSFGRDMELEHFDERDKAQRYSRGSRVNGLPSPTHSAHCSFYRTRTLQTLSSEKKAKKVRFYRNGDRYFKGIVYAISPDRFRSFEALLADLTRTLSDNVNLPQGVRTIYTIDGLKKISSLDQLVEGESYVCGSIEPFKKLEYTKNVNPNWSVNVKTTSASRAVSSLATAKGSPSEVRENKDFIRPKLVTIIRSGVKPRKAVRILLNKKTAHSFEQVLTDITDAIKLDSGVVKRLYTLDGKQVMCLQDFFGDDDIFIACGPEKFRYQDDFLLDESECRVVKSTSYTKIASSSRRSTTKSPGPSRRSKSPASTSSVNGTPGSQLSTPRSGKSPSPSPTSPGSLRKQRSSQHGGSSTSLASTKVCSSMDENDGPGEEVSEEGFQIPATITERYKVGRTIGDGNFAVVKECVERSTAREYALKIIKKSKCRGKEHMIQNEVSILRRVKHPNIVLLIEEMDVPTELYLVMELVKGGDLFDAITSTNKYTERDASGMLYNLASAIKYLHSLNIVHRDIKPENLLVYEHQDGSKSLKLGDFGLATIVDGPLYTVCGTPTYVAPEIIAETGYGLKVDIWAAGVITYILLCGFPPFRGSGDDQEVLFDQILMGQVDFPSPYWDNVSDSAKELITMMLLVDVDQRFSAVQVLEHPWVNDDGLPENEHQLSVAGKIKKHFNTGPKPNSTAAGVSVIATTALDKERQVFRRRRNQDVRSRYKAQPAPPELNSESEDYSPSSSETVRSPNSPF
binding [3]: binds
